Binding signal data for one sequence are collected here from publication PMC5996148.

Some of the results follow.

Some test systems named below: RUFY3 (human); RUNDC3A (human); RUNX1T1 (human); RWDD1 (human); Regucalcin (human).
What all share (experiment): protein microarray (ProtoArray v5.0), streptavidin-Alexa Fluor 647
Common to all, as to settings: 3'-biotin; 20 mM Tris (pH 7.5), 5 mM MgCl2, 100 mM KCl, 0.1% Tween-20, A/T-rich and random oligonucleotide blockers; temperature not stated; high values mean tight binding

Assay [1] has as its system Rab-like protein 3 (human).
For assay [2], the system named is Rab9 effector protein with Kelch motifs (human).
Assay [3] has as its system Radial spoke head 10 homolog B2 (human).
The subject of assay [4] is RanBP-type and C3HC4-type zinc finger-containing protein 1 (human).
Assay [5] deals with Rap1 GTPase-GDP dissociation stimulator 1 (human).
Assay [6] has as its system Ras association domain-containing protein 3 (human).
Assay [7] concerns Ras-related protein Rab-33B (human).
Assay [8] deals with Ras-related protein Rab-39B (human).
In assay [9] the test system is Ras-related protein Rab-3D (human).
Assay [10] has as its system Ras-related protein Rab-5A (human).
Assay [11] concerns Ras-related protein Rab-9B (human).
Assay [12] relates to Ras-related protein Rap-1b (human).
In assay [13] the test system is Receptor expression-enhancing protein 1 (human).
The test system of assay [14] is Receptor expression-enhancing protein 5 (human).
Assay [15] has as its system Regenerating islet-derived protein 3 gamma (human).

For the sequence “GGGAGGCTGAGGCAGG [G4-1 biotinylated (PQS2)]”, the binding signal with RUFY3 (human) is -0.322 z-score; with RUNDC3A (human), -0.319 z-score; in the assay with RUNX1T1 (human), -0.337 z-score; in the assay with RWDD1 (human), -0.328 z-score; in assay [1], -0.299 z-score; in assay [2], -0.334 z-score. Moreover, the binding signal in [3] was -0.264 z-score; in assay [4] it was -0.326 z-score; in [5], -0.343 z-score; in assay [6] it was -0.32 z-score; in [7], -0.349 z-score; in [8], -0.361 z-score. Moreover, the binding signal in assay [9] was -0.347 z-score; in assay [10] it was -0.285 z-score; in assay [11], -0.359 z-score; in assay [12] it was -0.331 z-score; in [13] it was -0.336 z-score; in [14] it was -0.361 z-score. Further, the binding signal in [15] is -0.357 z-score; in the assay with Regucalcin (human), -0.332 z-score.
